{"source": "PubChem BioAssay AID1224827 (NIAID, 2016)", "purpose": "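Retest primary hits on a TNF reporter with six siRNAs per gene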 (follow-up of hits)", "system": "RAW264.7 G9 mouse macrophage reporter clone", "knock-down reagent": "single siRNA against mouse genes, 100 nM siRNA", "timing": "siRNA for 2 days, then LPS about 16 h", "treatment": "bacterial lipopolysaccharide (LPS), 10 ng/ml, cells fixed after overnight (about 16 h) stimulation", "detection": "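Imaged nuclear TNF reporter intensity, background removed, scaled per plate and to non-targeting control wells, as z-scores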", "direction": "TNF reporter z-score, mean: higher = stronger Tnf promoter reporter signal", "call rule": "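Active siRNA: replicate-mean z-score of 2 or more, or -2 or less; no calls for control wells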", "note": "In all, the deposit lists about 3,800 reagents; this is an unselected part. About 2,200 of all reagents (57%) were called active. 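Active means a strong reporter change in either direction; calls are per siRNA, not per gene; qiagen siRNAs gave weaker effects.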 Reagents against one gene are numbered here. Further read-outs or replicates are left out here. No sequences are given here."}
{"gene symbol":"Ca9","reagent":1,"TNF reporter z-score, mean":-0.551,"call":"inactive"}
{"gene symbol":"Ca9","reagent":2,"TNF reporter z-score, mean":-2.75,"call":"active"}
{"gene symbol":"Ca9","reagent":3,"TNF reporter z-score, mean":-3.45,"call":"active"}
{"gene symbol":"Ca9","reagent":4,"TNF reporter z-score, mean":1.74,"call":"inactive"}
{"gene symbol":"Ca9","reagent":5,"TNF reporter z-score, mean":-1.57,"call":"inactive"}
{"gene symbol":"Ca9","reagent":6,"TNF reporter z-score, mean":-2.66,"call":"active"}
{"gene symbol":"Nhlh1","reagent":1,"TNF reporter z-score, mean":-2.66,"call":"active"}
{"gene symbol":"Nhlh1","reagent":2,"TNF reporter z-score, mean":-4.43,"call":"active"}
{"gene symbol":"Nhlh1","reagent":3,"TNF reporter z-score, mean":-4.75,"call":"active"}
{"gene symbol":"Nhlh1","reagent":4,"TNF reporter z-score, mean":4.89,"call":"active"}
{"gene symbol":"Nhlh1","reagent":5,"TNF reporter z-score, mean":2.47,"call":"active"}
{"gene symbol":"Nhlh1","reagent":6,"TNF reporter z-score, mean":-3.06,"call":"active"}

Quoted from the entries so far, 3 entries:
{"gene symbol":"Ca9","reagent":3,"TNF reporter z-score, mean":-3.45,"call":"active"}
{"gene symbol":"Ca9","reagent":4,"TNF reporter z-score, mean":1.74,"call":"inactive"}
{"gene symbol":"Ca9","reagent":5,"TNF reporter z-score, mean":-1.57,"call":"inactive"}

Next records follow.
{"gene symbol":"Fech","reagent":1,"TNF reporter z-score, mean":-3.64,"call":"active"}
{"gene symbol":"Fech","reagent":2,"TNF reporter z-score, mean":-4.07,"call":"active"}
{"gene symbol":"Fech","reagent":3,"TNF reporter z-score, mean":-5.1,"call":"active"}
{"gene symbol":"Fech","reagent":4,"TNF reporter z-score, mean":1.08,"call":"inactive"}
{"gene symbol":"Fech","reagent":5,"TNF reporter z-score, mean":-0.0587,"call":"inactive"}
{"gene symbol":"Fech","reagent":6,"TNF reporter z-score, mean":-0.361,"call":"inactive"}
{"gene symbol":"Acox2","reagent":1,"TNF reporter z-score, mean":2.06,"call":"active"}
{"gene symbol":"Acox2","reagent":2,"TNF reporter z-score, mean":-0.407,"call":"inactive"}
{"gene symbol":"Acox2","reagent":3,"TNF reporter z-score, mean":-5.93,"call":"active"}
{"gene symbol":"Acox2","reagent":4,"TNF reporter z-score, mean":-0.353,"call":"inactive"}
{"gene symbol":"Acox2","reagent":5,"TNF reporter z-score, mean":-0.672,"call":"inactive"}
{"gene symbol":"Acox2","reagent":6,"TNF reporter z-score, mean":-2.02,"call":"active"}
